Reference: PubChem BioAssay AID504444 (National Center for Advancing Translational Sciences (NCATS), 2011)
About 7,500 (2.1%) of roughly 360,000 compounds were called active. The shares of active, inactive and inconclusive entries below differ from those in the screen. The call rests on the fitted dose curve; in most records, active means well fitted inhibition curve with a large enough effect; inconclusive means small, poorly fitted or top-dose-only effect, or effect the other way; inactive means flat fitted curve, though single readings scatter. Potencies of inconclusive entries are doubtful fits and often do not repeat.

Test: Nrf2 qHTS screen for inhibitors; further: nearly all actives have a fitted effect of over 60% in size
Conditions: A549 ARE-Fluc reporter, luciferase luminescence, 18-24 h; activity change, negative = inhibition: at 46 µM (top of the series)
Description: NIH Molecular Libraries Probe Production Network [MLPCN]
NIH Chemical Genomics Center [NCGC]
Assay Provider: Shyam Biswal, Johns Hopkins University
Nrf2 is a transcription factor that maintains cellular redox homoestasis and protects cells from xenobiotics. Nrf2 binds to the antioxidant response element (ARE) to induce gene expression of a broad spectrum of genes that encode for antioxidants. […] Finding a small molecule that act as an inhibitor of Nrf2 function would represent a novel therapeutic target that could lead to improvement in survival of patients undergoing chemo- and/or radio- therapy.
This is the Nrf2 activity measured in the luminescent read.
1. Shibata, T., et al., Genetic Alteration of Keap1 Confers Constitutive Nrf2 Activation and Resistance to Chemotherapy in Gallbladder Cancer. Gastroenterology, 2008.
2. Sjoblom, T., et al., The consensus coding sequences of human breast and colorectal cancers. Science, 2006. 314(5797): p. 268-74.
NCGC Assay Protocol Summary:
A concentration-response assay was performed with A549 ARE_Fluc cells which are suspended in 5% FBS OPTI-MEM. Five uL were dispensed into 1536-well white TC-treated plate using the Kalypsys dispenser to achieve a density of 5000 cells/well in all columns except column 1. The plate is incubated at 37deg C at 5% CO2 for 2 hours before 23 nL of compounds are added with the Kalypsys pin tool equipped with a 1,536-pin array containing 10-nL slotted pins (FP1S10, 0.457-mm diameter, 50.8 mm long; V&P Scientific). The control compounds Budesonide and Staurosporine are both added at a concentration of 2mM and Budesonide is also added as a 1:10 titration, starting at 200uM, to achieve dose-response. After an 18-24 hour incubation at 37deg C at 5% CO2, 5ul of medium is added to column 1. Afterwards 1ul of 5x of CellTiter-Fluor (Promega) is added to every well. The plate is then incubated at 37deg C at 5% CO2 for 30 minutes before they are read on the ViewLux (Perkin Elmer) for a fluorescent read Ex=405(10)/Em=525(10) for a 3 second exposure, 2x binning, and high gain. Then 3 uL of 3x BugLite is dispensed into all wells and the plate is incubated at ambient room temperature for 15 minutes. Afterwards another ViewLux read is performed using the clear filter to get a luminescent read with the settings of 40 second exposure, 2x binning, and high gain. Cytotoxicity is assessed through the first fluorescent read and then biochemical activity against Nrf2 is measured in the luminescent read.
On the % scale 0 is the no-effect control and ±100 the full control effect; potency means the concentration at half of the fitted maximal effect.

Structure (SMILES)	Potency	activity change, negative = inhibition
c1csc(CNc2ncnc3ccc(-c4ccc5c(c4)OCCO5)cc23)c1	inconclusive: 3.26 µM [falling, full curve, poor fit]	
O=C(O)CCCc1nc2ccccc2s1	inconclusive: 0.411 µM [falling, partial curve, poor fit]	
O=C(Nc1ccc(F)cc1F)c1csc(-c2ccncc2)n1	inconclusive: 10.3 µM [activator, partial curve, poor fit]	
CC(C)(C)c1ccc(C(=O)NC2(C(F)(F)F)C(=O)Nc3c2c(=O)[nH]c(=O)n3-c2ccccc2)cc1 (stereo unspecified)	inconclusive: 2.31 µM [falling, partial curve, poor fit]	
COc1cccc(CC(=O)Nc2nc(-c3ccc(OC)c(OC)c3)cs2)c1	inconclusive: 23.1 µM [falling, single point]	
COC(=O)c1c(C)oc2ccc(N(C(=O)c3ccncc3)S(=O)(=O)c3c(C)cc(C)cc3C)cc12	active: 4.11 µM	
COc1ccc(C(CCNCc2ccc(F)cc2)c2ccc(F)cc2)cc1 (stereo unspecified)	inconclusive: 23.1 µM [falling, partial curve, poor fit]	
Cc1sc2ncn(CC(=O)N3CCN(c4ccc(Cl)cc4)CC3)c(=O)c2c1S(=O)(=O)N1CCN(c2ncccn2)CC1		inactive: 4.5% [at 9.27 µM]
Cc1cc(C)cc(NC(=S)NCc2ccc3c(c2)OCO3)c1	inconclusive: 2.91 µM [activator, full curve, poor fit]	
O=C(c1cccc(S(=O)(=O)N2CCN(c3ccc(F)cc3)CC2)c1)N1CCCC(C(F)(F)F)C1 (stereo unspecified)	active: 4.61 µM	
O=C(NCCc1ccccc1)c1ccccc1F	inconclusive: 0.731 µM [activator, full curve, poor fit]	
COCCCNC(=O)C[C@H]1C[C@H](C(=O)N2CCCCC2)[C@@]2(CCc3ccccc3)c3[nH]c4ccc(Cl)cc4c3CCN2C1=O	inconclusive: 18.4 µM [falling, single point]	
CCS(=O)(=O)Nc1cccc(C2=NN(S(=O)(=O)c3ccc(C)cc3)C(c3cccs3)C2)c1 (stereo unspecified)	inconclusive: 3.26 µM [falling, partial curve, poor fit]	
C/C(=N\Nc1nncc2ccccc12)c1ccc(Cl)c([N+](=O)[O-])c1	inconclusive: 29.1 µM [activator, single point]	
CN(CC(=O)Nc1ccc(Cl)c(C(F)(F)F)c1)C(=O)c1cc(=O)[nH]c2ccccc12	inconclusive: 16.4 µM [falling, single point]	
CC1=C(C(N)=O)C(c2ccc(C)o2)C(C(N)=O)=C(C)N1	inconclusive: 29.1 µM [activator, single point]	

A different layout for 2 compounds above:
COc1cccc(CC(=O)Nc2nc(-c3ccc(OC)c(OC)c3)cs2)c1
  Potency: inconclusive: 23.1 µM [falling, single point]
COC(=O)c1c(C)oc2ccc(N(C(=O)c3ccncc3)S(=O)(=O)c3c(C)cc(C)cc3C)cc12
  Potency: active: 4.11 µM
